Measured values from patent US6482975B1, “Bis-poly(ethylene oxide) surfactants and their use as antistats in photographic materials” (Eastman Kodak Company, priority 1998, dated 2002).

Assays:
[1] = Impact electrostatic charging of gelatin-based coatings against stainless steel; details: 50% RH
[2] = Surface Electrical Resistivity (SER) of gelatin-based coatings containing surfactant
[3] = against stainless steel, presence of CF3SO3Li (½ wt of surfactant), surfactant 0.15 wt %
[4] = against stainless steel, presence of CF3SO3Li (½ wt of surfactant), surfactant 0.3 wt %
[5] = against stainless steel, presence of CF3SO3Li (½ wt of surfactant), surfactant 0.6 wt %
[6] = 50% RH, absence of CF3SO3Li, surfactant 0.15 wt %
[7] = 50% RH, absence of CF3SO3Li, surfactant 0.3 wt %
[8] = 50% RH, absence of CF3SO3Li, surfactant 0.6 wt %
[9] = 50% RH, presence of CF3SO3Li (½ wt of surfactant), surfactant 0.15 wt %
[10] = 50% RH, presence of CF3SO3Li (½ wt of surfactant), surfactant 0.3 wt %
[11] = 50% RH, presence of CF3SO3Li (½ wt of surfactant), surfactant 0.6 wt %

Substance | Impact Charging ([1]; absence of CF3SO3Li) | Impact Charging [1, 3] | Impact Charging [1, 4] | Impact Charging [1, 5] | Log SER (Ω per Square) ([2]; 20% RH, presence of CF3SO3Li (½ wt of surfactant), surfactant 0.15 wt %) | Log SER (Ω per Square) ([2]; 20% RH, presence of CF3SO3Li (½ wt of surfactant), surfactant 0.3 wt %) | Log SER (Ω per Square) ([2]; 20% RH, presence of CF3SO3Li (½ wt of surfactant), surfactant 0.6 wt %) | Log SER (Ω per Square) [2, 6] | Log SER (Ω per Square) [2, 7] | Log SER (Ω per Square) [2, 8] | Log SER (Ω per Square) [2, 9] | Log SER (Ω per Square) [2, 10] | Log SER (Ω per Square) [2, 11]
CxF2x+1(CH2)y—(CH2CH2O) z—OH [Zonyl FSN] | charges strongly negatively | −16 μCm^−2 | +2 μCm^−2 | +4 μCm^−2 | 11.9 Ω per Square | 10.7 Ω per Square | 10.1 Ω per Square | 11.5 Ω per Square | 11.4 Ω per Square | 11.1 Ω per Square | 11.1 Ω per Square | 10.3 Ω per Square | 9.6 Ω per Square
Fluoroalkylthiosuccinic acid, Polyethylene glycol diester (II, R=C6F13CH2CH2,p=7) |  | +2 μCm^−2 | 0 μCm^−2 | −2 μCm^−2 |  |  |  | 10.9 Ω per Square | 10.8 Ω per Square | 10.6 Ω per Square | 11.0 Ω per Square | 10.2 Ω per Square | 9.6 Ω per Square
